The target of assay [1] is T1, Vesicular monoamine transporter 1 (VMAT1), as in the co-immunoprecipitation from PC12 cells (UniProt Q01818).
T1 sequence: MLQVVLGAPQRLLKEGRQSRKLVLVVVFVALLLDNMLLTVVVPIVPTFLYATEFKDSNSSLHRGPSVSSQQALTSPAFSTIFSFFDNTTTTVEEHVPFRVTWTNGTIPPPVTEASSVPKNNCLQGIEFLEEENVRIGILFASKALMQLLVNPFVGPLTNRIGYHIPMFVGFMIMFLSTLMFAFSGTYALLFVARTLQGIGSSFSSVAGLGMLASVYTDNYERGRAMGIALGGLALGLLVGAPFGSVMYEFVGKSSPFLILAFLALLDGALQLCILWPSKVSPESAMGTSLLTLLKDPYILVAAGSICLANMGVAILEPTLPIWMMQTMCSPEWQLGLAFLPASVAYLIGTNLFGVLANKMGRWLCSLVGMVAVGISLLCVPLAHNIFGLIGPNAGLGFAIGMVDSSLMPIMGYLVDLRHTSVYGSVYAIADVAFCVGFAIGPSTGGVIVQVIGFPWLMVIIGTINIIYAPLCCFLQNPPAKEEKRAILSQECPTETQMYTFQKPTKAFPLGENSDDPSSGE
Put plainly: co-IP; native co-immunoprecipitation from PC12 homogenate; beads washed four times with PBS with 1% Triton X-100; soft elution (0.2% SDS, 0.1% Tween-20, 50 mM Tris-HCl pH 8.0); IgG IP as control; immunoblot. (In general: In western blotting, separated proteins are transferred to a membrane and probed.)

Assay [2] concerns the target AP-3 δ subunit (δ1 subunit of the AP-3 complex) (rat (endogenous in PC12)). Description: proximity ligation; Duolink In Situ Red kit (mouse/rabbit) on fixed (4% PFA), permeabilised (0.2% Triton X-100) WT PC12 cells; primary antibodies to AP-3δ and to SYT1, DLK1 or GFP (for VMAT1-GFP); no-antibody control showed no PLA signal.

The record followed here is publication PMC13546849.

No constants are given. Whether binding was seen depends on the method and setting. Binding seen in cells or lysates may run through a third protein. A result given as binding can be weak or reduced; the word gives no strength. For some assays here: Sequences can lack the tags named with a protein.

As to “AP-3 μ subunit (rat (endogenous in PC12))”, in assay [1], the binding entry is “binds”.

B1: VMAT1-GFP (vesicular monoamine transporter 1 with GFP) (protein, UniProt Q01818 1-521)
chain: T1 sequence
On to B1, for which the binding entry in assay [2] was “binds”.
